Data as given in PubChem BioAssay AID652259 (Drosophila RNAi Screening Center, 2013)
The screen tested about 22,000 reagents; shown is a random part of those with a known target gene and a result. Over the whole deposit, 233 (1.1%) are marked active. 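Light values are raw, unnormalised plate reads; the ratio scores behind the reporter calls were not deposited.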 Unmarked entries are inactive. A plus sign joins genes that one reagent is predicted to hit. The record does not give: the amount of reagent, the time to read-out, the dose of the treatment.

Purpose: 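Genome-wide hunt for genes that control Wingless pathway activity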 (primary screen)
Cell system: Drosophila clone 8 imaginal disc epithelial cells
Reagents: long dsRNA against Drosophila genes
Conditions: pathway stimulated by co-transfected Wingless expression plasmid
Detection: 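Firefly luciferase from a tcf-site Wingless reporter, measured alongside co-transfected Renilla luciferase that tracks transfection; pathway stimulated by a Wingless plasmid; the firefly-to-Renilla ratio is not deposited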
Reading the numbers: firefly reporter light: higher = more Wg reporter light, before normalisation; Renilla control light: higher = more transfected or surviving cells
Call rule: 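Strong candidates differ from their plate mean by at least two out of four per-plate statistical tests; weak candidates meet just one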
Meaning of the calls: active = candidate regulator (raises or lowers reporter); inactive = not a candidate

{"Target gene": "Nnk", "DRSC id": "DRSC15274", "firefly reporter light, replicate 1": 15987, "Renilla control light, replicate 1": 3511}
{"Target gene": "l(2)k14505", "DRSC id": "DRSC03106", "firefly reporter light, replicate 1": 5878, "Renilla control light, replicate 1": 1609}
{"Target gene": "Srlp", "DRSC id": "DRSC15890", "firefly reporter light, replicate 1": 9227, "Renilla control light, replicate 1": 1744}
{"Target gene": "cindr", "DRSC id": "DRSC14126", "firefly reporter light, replicate 1": 1922, "firefly reporter light, replicate 2": 9612, "Renilla control light, replicate 1": 884, "Renilla control light, replicate 2": 2818}
{"Target gene": "cindr", "DRSC id": "DRSC14298", "firefly reporter light, replicate 1": 4716, "Renilla control light, replicate 1": 1517}
{"Target gene": "ltl", "DRSC id": "DRSC10206", "firefly reporter light, replicate 1": 1925, "firefly reporter light, replicate 2": 8308, "Renilla control light, replicate 1": 893, "Renilla control light, replicate 2": 2902}
{"Target gene": "ltl", "DRSC id": "DRSC10870", "firefly reporter light, replicate 1": 1124, "firefly reporter light, replicate 2": 5260, "Renilla control light, replicate 1": 993, "Renilla control light, replicate 2": 2304}
{"Target gene": "CG12493", "DRSC id": "DRSC08279", "firefly reporter light, replicate 1": 1757, "firefly reporter light, replicate 2": 10041, "Renilla control light, replicate 1": 1344, "Renilla control light, replicate 2": 3987}
{"Target gene": "Ide", "DRSC id": "DRSC11867", "firefly reporter light, replicate 1": 4341, "Renilla control light, replicate 1": 1794}
{"Target gene": "CG16898", "DRSC id": "DRSC06635", "firefly reporter light, replicate 1": 4672, "Renilla control light, replicate 1": 1866}
{"Target gene": "CG9673", "DRSC id": "DRSC20202", "firefly reporter light, replicate 1": 19895, "Renilla control light, replicate 1": 12595}
{"Target gene": "CG6294 + CG6299", "DRSC id": "DRSC19980", "firefly reporter light, replicate 1": 19821, "Renilla control light, replicate 1": 8509}
{"Target gene": "CG11241", "DRSC id": "DRSC11641", "firefly reporter light, replicate 1": 9520, "Renilla control light, replicate 1": 3337}
{"Target gene": "CG11241", "DRSC id": "DRSC22165", "firefly reporter light, replicate 1": 6.80e5, "firefly reporter light, replicate 2": 6.60e5, "Renilla control light, replicate 1": 2.64e5, "Renilla control light, replicate 2": 2.51e5}
{"Target gene": "TwdlW", "DRSC id": "DRSC15540", "firefly reporter light, replicate 1": 16540, "Renilla control light, replicate 1": 3640}
{"Target gene": "Polr1F", "DRSC id": "DRSC02278", "firefly reporter light, replicate 1": 8850, "Renilla control light, replicate 1": 3971}
{"Target gene": "CG30394", "DRSC id": "DRSC04074", "firefly reporter light, replicate 1": 2743, "firefly reporter light, replicate 2": 8947, "Renilla control light, replicate 1": 678, "Renilla control light, replicate 2": 2276}
{"Target gene": "CG30394", "DRSC id": "DRSC04260", "firefly reporter light, replicate 1": 2550, "firefly reporter light, replicate 2": 4098, "Renilla control light, replicate 1": 704, "Renilla control light, replicate 2": 1712}
